Results as given in patent publication US11180490B2, “Cyclopropyl urea formyl peptide 2 receptor and formyl peptide 1 receptor agonists” (BRISTOL-MYERS SQUIBB COMPANY, priority 2017, dated 2021).
Some entries share one result that the patent states for a list of compounds.

Target: T1, human FPR2 (Homo sapiens, UniProt P25090)
T1 sequence (P25090 1-351): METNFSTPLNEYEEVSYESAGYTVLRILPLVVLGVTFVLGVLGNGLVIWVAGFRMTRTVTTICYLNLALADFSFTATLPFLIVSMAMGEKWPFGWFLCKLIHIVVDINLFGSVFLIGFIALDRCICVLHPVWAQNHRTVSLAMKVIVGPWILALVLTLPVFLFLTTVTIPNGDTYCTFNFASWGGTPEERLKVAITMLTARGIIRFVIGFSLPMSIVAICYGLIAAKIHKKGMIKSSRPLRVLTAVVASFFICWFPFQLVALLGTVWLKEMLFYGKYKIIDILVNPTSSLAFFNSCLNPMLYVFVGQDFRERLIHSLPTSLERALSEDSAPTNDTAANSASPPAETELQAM
Experiment: FPR2 cyclic adenosine monophosphate (cAMP) assay
Format: cell-based
Conditions: potency bins given in text; CHO cells overexpressing human FPR2; read-out: FPR2 agonist activity EC50 values in the hFPR2 Assay
Experimental: FPR2 and FPR1 Cyclic Adenosine Monophosphate (cAMP) Assays. A mixture of forskolin (5 μM final for FPR2 or 10 μM final for FPR1) and IBMX (200 μM final) were added to 384-well Proxiplates (Perkin-Elmer) pre-dotted with test compounds in DMSO (1% final) at final concentrations in the range of 1.7 nM to 100 μM. Chinese Hamster Ovary cells (CHO) overexpressing human FPR1 or human FPR2 receptors were cultured in F-12 (Ham's) medium supplemented with 10% qualified FBS, 250 μg/ml zeocin and 300 μg/ml hygromycin (Life Technologies). Reactions were initiated by adding 2,000 human FPR2 cells per well or 4,000 human FPR1 cells per well in Dulbecco's PBS (with calcium and magnesium) (Life Technologies) supplemented with 0.1% BSA (Perkin-Elmer). The reaction mixtures were incubated for 30 min at room temperature. The level of intracellular cAMP was determined using the HTRF HiRange cAMP assay reagent kit (Cisbio) according to manufacturer's instruction. Solutions of cryptate conjugated anti-cAMP and d2 flurorophore-labelled cAMP were made in a supplied lysis buffer separately. Upon completion of the reaction, the cells were lysed with equal volume of the d2-cAMP solution and anti-cAMP solution. […] The potency and activity of a compound to inhibit cAMP production was then determined by fitting to a 4-parametric logistic equation from a plot of cAMP level versus compound concentrations.

| Compound | EC50 |
| --- | --- |
| COc1cc(F)c([C@@H]2CNC(=O)[C@H]2NC(=O)NC2(c3nc4ccc(OC)cc4s3)CC2)c(F)c1 [Example 35, 1-[(3S,4R)-4-(2,6-difluoro-4-methoxyphenyl)-2-oxopyrrolidin-3-yl]-3-[1-(6-methoxy-1,3-benzothiazol-2-yl)cyclopropyl]urea] | < 10 nM |
| COc1cc(F)c([C@@H]2CNC(=O)[C@H]2NC(=O)NC2(c3ccnc(Cl)c3)CC2)c(F)c1 [Example 54] | < 10 nM |
| COc1cc(F)c([C@@H]2CNC(=O)[C@H]2NC(=O)NC2(c3cccnn3)CC2)c(F)c1 [Example 32, 1-[(3S,4R)-4-(2,6-difluoro-4-methoxyphenyl)-2-oxopyrrolidin-3-yl]-3-[1-(pyridazin-3-yl)cyclopropyl]urea] | < 10 nM |
| COc1cc(F)c([C@@H]2CNC(=O)[C@H]2NC(=O)NC2(c3nc4c(C(F)(F)F)cccc4s3)CC2)c(F)c1 [Example 96, 1-[(3S,4R)-4-(2,6-difluoro-4-methoxyphenyl)-2-oxopyrrolidin-3-yl]-3-{1-[4-(trifluoromethyl)-1,3-benzothiazol-2-yl]cyclopropyl}urea] | < 10 nM |
| COc1cc(F)c([C@@H]2CNC(=O)[C@H]2NC(=O)NC2(c3ccc4cccc(OCC(F)(F)F)c4n3)CC2)c(F)c1 [Example 103, 1-[(3S,4R)-4-(2,6-difluoro-4-methoxyphenyl)-2-oxopyrrolidin-3-yl]-3-{1-[8-(2,2,2-trifluoro-ethoxy)quinolin-2-yl]cyclopropyl}urea] | < 10 nM |
| COc1cc(F)c([C@@H]2CN(CCO)C(=O)[C@H]2NC(=O)NC2(c3cc(Cl)cc(Cl)c3)CC2)c(F)c1 [Example 107, 3-[1-(3,5-dichloro-phenyl)cyclopropyl]-1-[(3S,4R)-4-(2,6-difluoro-4-methoxyphenyl)-1-(2-hydroxyethyl)-2-oxopyrrolidin-3-yl]urea] | < 10 nM |
| COc1cc(F)c([C@@H]2CNC(=O)[C@H]2NC(=O)NC2(c3cncc(C)n3)CC2)c(F)c1 [Example 44, 1-[(3S,4R)-4-(2,6-difluoro-4-methoxyphenyl)-2-oxopyrrolidin-3-yl]-3-[1-(6-methylpyrazin-2-yl)cyclopropyl]urea] | < 10 nM |
| COc1cc(F)c([C@@H]2CNC(=O)[C@H]2NC(=O)NC2(c3ccc4ccncc4n3)CC2)c(F)c1 [Example 43, 1-[(3S,4R)-4-(2,6-difluoro-4-methoxyphenyl)-2-oxopyrrolidin-3-yl]-3-[1-(1,7-naphthyridin-2-yl)cyclopropyl]urea] | < 10 nM |
| COc1cc(F)c([C@@H]2CNC(=O)[C@H]2NC(=O)NC2(c3cc(F)cc(C(F)(F)F)c3)CC2)c(F)c1 [Example 36, 1-[(3S,4R)-4-(2,6-difluoro-4-methoxyphenyl)-2-oxopyrrolidin-3-yl]-3-{1-[3-fluoro-5-(trifluoro-methyl)phenyl]cyclo-propyl}urea] | < 10 nM |
| COc1cc(F)c([C@@H]2CNC(=O)[C@H]2NC(=O)NC2(c3cccc(OCC4CCc5ccccc5C4)c3)CC2)c(F)c1 (single isomer, unassigned) [Example 128] | < 10 nM |
| COc1cc(F)c([C@@H]2CNC(=O)[C@H]2NC(=O)NC2(c3cccc(OCC4Cc5ccccc54)c3)CC2)c(F)c1 (stereo partly drawn) [Example 129, 3-{1-[3-({bicyclo[4.2.0]octa-l(6),2,4-trien-7-yl}methoxy)phenyl]cyclo-propyl}-1-[(3S,4R)-4-(2,6-difluoro-4-methoxyphenyl)-2-oxopyrrolidin-3-yl]urea] | < 10 nM |
| COc1cc(F)c([C@@H]2CNC(=O)[C@H]2NC(=O)NC2(c3cc(C)cc(C)n3)CC2)c(F)c1 [Example 30, 1-[(3S,4R)-4-(2,6-difluoro-4-methoxyphenyl)-2-oxopyrrolidin-3-yl]-3-[1-(4,6-dimethylpyridin-2-yl)cyclopropyl]urea] | < 10 nM |
| COc1cc(F)c([C@@H]2CNC(=O)[C@H]2NC(=O)NC2(c3nc4c(C)cccc4s3)CC2)c(F)c1 [Example 86, 1-[(3S,4R)-4-(2,6-difluoro-4-methoxyphenyl)-2-oxopyrrolidin-3-yl]-3-[1-(4-methyl-l,3-benzothiazol-2-yl)cyclopropyl]urea] | < 10 nM |
| COc1cc(F)c([C@@H]2CN(CC(F)(F)F)C(=O)[C@H]2NC(=O)NC2(c3ccc4ccccc4n3)CC2)c(F)c1 [Example 104, 1-[(3S,4R)-4-(2,6-difluoro-4-methoxyphenyl)-2oxo-1-(2,2,2-trifluoro-ethyl)pyrrolidin-3-yl]-3-[1-(quinolin-2-yl)cyclopropyl]urea] | < 10 nM |
| COc1ccc(C2(NC(=O)N[C@@H]3C(=O)NC[C@H]3c3c(F)cc(OC)cc3F)CC2)cc1 [Example 22, 1-[(3S,4R)-4-(2,6-difluoro-4-methoxyphenyl)-2-oxopyrrolidin-3-yl]-3-[1-(4-methoxy-phenyl)cyclopropyl]urea] | < 10 nM |
| COc1cc(F)c([C@@H]2CNC(=O)[C@H]2NC(=O)NC2(c3cccc(Cl)n3)CC2)c(F)c1 [Example 1, 3-[1-(6-chloropyridin-2-yl)cyclopropyl]-1-[(3S,4R)-4-(2,6-difluoro-4-methoxyphenyl)-2-oxopyrrolidin-3-yl]urea] | < 10 nM |
| COc1cc(F)c([C@@H]2CN(C(C)(C)CO)C(=O)[C@H]2NC(=O)NC2(c3cccc(C)n3)CC2)c(F)c1 [Example 102] | < 10 nM |
| COc1cc(F)c([C@@H]2CNC(=O)[C@H]2NC(=O)NC2(c3cccc(OCc4ccc5ccccc5c4)n3)CC2)c(F)c1 [Example 130, 1-[(3S,4R)-4-(2,6-difluoro-4-methoxyphenyl)-2-oxopyrrolidin-3-yl]-3-(1-{6-[(naphthalen-2-yl)methoxy]pyridin-2-yl}cyclopropyl)urea] | < 10 nM |
| COc1cc(F)c([C@@H]2CNC(=O)[C@H]2NC(=O)NC2(c3cccc(OCCOCc4ccccc4)c3)CC2)c(F)c1 [Example 37, 1-(1-(3-(2-(benzyl-oxy)ethoxy)phenyl)cyclo-propyl)-3-((3S,4R)-4-(2,6-difluoro-4-methoxyphenyl)-2-oxopyrrolidin-3-yl)urea] | < 10 nM |
| CCCN1C[C@@H](c2c(F)cc(OC)cc2F)[C@H](NC(=O)NC2(c3cc(Cl)cc(Cl)c3)CC2)C1=O [Example 101, 3-[1-(3,5-dichloro-phenyl)cyclopropyl]-1-[(3S,4R)-4-(2,6-difluoro-4-methoxyphenyl)-2-oxo-1-propylpyrrolidin-3-yl]urea] | < 10 nM |
| COc1cc(F)c([C@@H]2CNC(=O)[C@H]2NC(=O)NC2(c3cccc(OCc4ccc5ccccc5c4)c3)CC2)c(F)c1 [Example 131, 1-[(3S,4R)-4-(2,6-difluoro-4-methoxyphenyl)-2-oxopyrrolidin-3-yl]-3-(l-{3-[(naphthalen-2-yl)methoxy]phenyl}cyclo-propyl)urea] | < 10 nM |
| COc1cc(F)c([C@@H]2CN(CC#N)C(=O)[C@H]2NC(=O)NC2(c3cc(Cl)cc(Cl)c3)CC2)c(F)c1 [Example 97, 1-[(3S,4R)-1-(cyanomethyl)-4-(2,6-difluoro-4-methoxyphenyl)-2-oxopyrrolidin-3-yl]-3-[1-(3,5-dichlorophenyl)cyclo-propyl]urea] | < 10 nM |
| COc1cc(F)c([C@@H]2CNC(=O)[C@H]2NC(=O)NC2(c3ncc(-c4ccccc4)s3)CC2)c(F)c1 [Example 61, 1-[(3S,4R)-4-(2,6-difluoro-4-methoxyphenyl)-2-oxopyrrolidin-3-yl]-3-[1-(5-phenyl-1,3-thiazol-2-yl)cyclopropyl]urea] | < 10 nM |
| COc1cc(F)c([C@@H]2CNC(=O)[C@H]2NC(=O)NC2(c3ccc4cccc(F)c4n3)CC2)c(F)c1 [Example 99, 1-[(3S,4R)-4-(2,6-difluoro-4-methoxyphenyl)-2-oxopyrrolidin-3-yl]-3-[1-(8-fluoroquinolin-2-yl)cyclopropyl]urea] | < 10 nM |
| COc1cc(F)c([C@@H]2CN(CC(F)(F)F)C(=O)[C@H]2NC(=O)NC2(c3cc(Cl)cc(Cl)c3)CC2)c(F)c1 [Example 105, 3-[1-(3,5-dichloro-phenyl)cyclopropyl]-1-[(3S,4R)-4-(2,6-difluoro-4-methoxyphenyl)-2-oxo-1-(2,2,2-trifluoro-ethyl)pyrrolidin-3-yl]urea] | < 10 nM |
| COc1cc(F)c([C@@H]2CNC(=O)[C@H]2NC(=O)NC2(c3ccc(Cl)c(C)n3)CC2)c(F)c1 [Example 47, 3-[1-(5-chloro-6-methylpyridin-2-yl)cyclopropyl]-1-[(3S,4R)-4-(2.6-difluoro-4-methoxyphenyl)-2-oxopyrrolidin-3-yl]urea] | < 10 nM |
| COc1cc(F)c([C@@H]2CNC(=O)[C@H]2NC(=O)NC2(c3cc(C)ccn3)CC2)c(F)c1 [Example 21, 1-[(3S,4R)-4-(2,6-difluoro-4-methoxyphenyl)-2-oxopyrrolidin-3-yl]-3-[1-(4-methylpyridin-2-yl)cyclopropyl]urea] | < 10 nM |
